{"source": "patent US4717716A", "about": "“Immuno-regulator” (Nihon University, priority 1985, dated 1988)", "test_system": "plaque-forming cells of DDY mouse immunized with sheep red blood cells (SRBC)", "assay": "PFC method (hemolytic plaque-forming cells) in mice immunized with SRBC", "format": "in vivo", "data": [{"smiles": "NCCC(=O)N[C@@H](Cc1c[nH]cn1)C(=O)O", "note": "[L-carnosine, β-alanyl-L-histidine]", "values": [{"measurement": "Weight of Spleen", "setting": "25 mg/kg for 6 days, 2.5 × 10^8 SRBC, mice", "value": 0.14, "unit": "g"}, {"measurement": "Weight of Spleen", "setting": "50 mg/kg for 6 days, 2.5 × 10^8 SRBC, mice", "value": 0.18, "unit": "g"}, {"measurement": "Weight of Spleen", "setting": "250 mg/kg for 6 days, 2.5 × 10^8 SRBC, mice", "value": 0.15, "unit": "g"}, {"measurement": "Weight of Spleen", "setting": "500 mg/kg for 6 days, 2.5 × 10^8 SRBC, mice", "value": 0.14, "unit": "g"}, {"measurement": "Weight of Spleen", "setting": "SRBC antigen amount 2.5 × 10^9, 100 mg/Kg/day S.C. for six days", "value": 0.21, "unit": "g"}, {"measurement": "Weight of Spleen", "setting": "SRBC antigen amount 5 × 10^7, 100 mg/Kg/day S.C. for six days", "value": 0.14, "unit": "g"}, {"measurement": "Weight of Spleen", "setting": "SRBC antigen amount 5 × 10^8, 100 mg/Kg/day S.C. for six days", "value": 0.15, "unit": "g"}, {"measurement": "Weight of Spleen", "setting": "mice of 2 weeks age, 100 mg/Kg/day S.C., 2.5 × 10^8 SRBC", "value": 0.14, "unit": "g"}, {"measurement": "Weight of Spleen", "setting": "mice of 5 weeks age, 100 mg/Kg/day S.C., 2.5 × 10^8 SRBC", "value": 0.15, "unit": "g"}, {"measurement": "Weight of Spleen", "setting": "mice of 30 weeks age, 100 mg/Kg/day S.C., 2.5 × 10^8 SRBC", "value": 0.23, "unit": "g"}]}]}
